Results from the supplement of paper PMC10849652.
The list shows a part of the results.

The chains behind the UniProt entries cited, without tags or fusion partners. Where a name states a change or a piece, a line headed by the entry shows the natural chain unless it says otherwise.
UniProt Q9BTT4: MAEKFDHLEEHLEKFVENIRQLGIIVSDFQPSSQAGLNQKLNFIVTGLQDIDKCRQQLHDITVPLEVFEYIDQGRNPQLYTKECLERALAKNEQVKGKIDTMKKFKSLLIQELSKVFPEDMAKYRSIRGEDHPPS
UniProt A0JLT2: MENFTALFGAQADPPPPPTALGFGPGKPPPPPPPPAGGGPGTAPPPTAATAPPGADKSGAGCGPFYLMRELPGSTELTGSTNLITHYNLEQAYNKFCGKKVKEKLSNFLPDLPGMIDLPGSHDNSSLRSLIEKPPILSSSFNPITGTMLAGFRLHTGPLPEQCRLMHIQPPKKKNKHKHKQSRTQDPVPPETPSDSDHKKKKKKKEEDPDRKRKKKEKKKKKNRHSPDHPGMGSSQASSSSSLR
UniProt Q9NR56: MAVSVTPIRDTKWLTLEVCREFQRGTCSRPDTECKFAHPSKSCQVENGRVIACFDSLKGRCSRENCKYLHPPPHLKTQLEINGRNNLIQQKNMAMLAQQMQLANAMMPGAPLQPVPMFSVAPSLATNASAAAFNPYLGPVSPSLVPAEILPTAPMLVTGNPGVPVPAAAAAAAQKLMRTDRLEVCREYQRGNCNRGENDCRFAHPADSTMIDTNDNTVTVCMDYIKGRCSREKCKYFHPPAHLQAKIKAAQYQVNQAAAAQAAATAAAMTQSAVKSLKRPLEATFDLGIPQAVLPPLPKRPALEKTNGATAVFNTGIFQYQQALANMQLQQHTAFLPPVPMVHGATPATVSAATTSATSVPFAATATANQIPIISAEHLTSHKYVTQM
UniProt Q9Y4C4: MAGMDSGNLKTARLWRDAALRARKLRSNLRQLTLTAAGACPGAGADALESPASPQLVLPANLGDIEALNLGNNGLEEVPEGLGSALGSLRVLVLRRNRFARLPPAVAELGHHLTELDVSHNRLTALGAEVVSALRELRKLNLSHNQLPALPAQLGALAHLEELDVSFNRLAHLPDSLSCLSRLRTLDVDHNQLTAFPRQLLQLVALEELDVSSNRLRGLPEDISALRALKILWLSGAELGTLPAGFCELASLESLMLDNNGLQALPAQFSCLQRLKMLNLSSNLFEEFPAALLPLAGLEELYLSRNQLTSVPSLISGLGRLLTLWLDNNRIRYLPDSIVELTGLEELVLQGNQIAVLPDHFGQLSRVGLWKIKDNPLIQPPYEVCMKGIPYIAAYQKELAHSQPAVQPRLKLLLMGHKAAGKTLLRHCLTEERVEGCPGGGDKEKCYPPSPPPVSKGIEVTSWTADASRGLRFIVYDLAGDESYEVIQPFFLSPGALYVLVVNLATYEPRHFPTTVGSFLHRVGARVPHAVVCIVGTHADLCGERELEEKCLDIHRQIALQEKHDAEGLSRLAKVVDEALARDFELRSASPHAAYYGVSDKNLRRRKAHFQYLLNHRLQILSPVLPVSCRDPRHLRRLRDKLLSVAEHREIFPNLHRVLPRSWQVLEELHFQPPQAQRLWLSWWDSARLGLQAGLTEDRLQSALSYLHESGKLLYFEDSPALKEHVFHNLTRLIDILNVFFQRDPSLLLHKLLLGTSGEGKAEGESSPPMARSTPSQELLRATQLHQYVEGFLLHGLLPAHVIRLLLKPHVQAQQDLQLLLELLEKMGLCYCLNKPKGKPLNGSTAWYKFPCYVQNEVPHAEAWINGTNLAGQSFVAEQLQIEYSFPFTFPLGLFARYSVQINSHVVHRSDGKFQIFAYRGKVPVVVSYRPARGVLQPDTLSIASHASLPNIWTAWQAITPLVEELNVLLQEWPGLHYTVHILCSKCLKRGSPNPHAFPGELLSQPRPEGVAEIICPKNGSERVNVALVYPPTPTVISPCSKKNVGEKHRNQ
UniProt Q9BUE0: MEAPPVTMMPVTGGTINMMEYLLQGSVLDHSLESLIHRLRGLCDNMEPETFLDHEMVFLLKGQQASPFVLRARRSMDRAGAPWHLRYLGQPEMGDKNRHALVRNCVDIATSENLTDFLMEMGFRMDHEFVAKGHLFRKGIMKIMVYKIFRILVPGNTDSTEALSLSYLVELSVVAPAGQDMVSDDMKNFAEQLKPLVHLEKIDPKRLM
UniProt Q8N6Q8: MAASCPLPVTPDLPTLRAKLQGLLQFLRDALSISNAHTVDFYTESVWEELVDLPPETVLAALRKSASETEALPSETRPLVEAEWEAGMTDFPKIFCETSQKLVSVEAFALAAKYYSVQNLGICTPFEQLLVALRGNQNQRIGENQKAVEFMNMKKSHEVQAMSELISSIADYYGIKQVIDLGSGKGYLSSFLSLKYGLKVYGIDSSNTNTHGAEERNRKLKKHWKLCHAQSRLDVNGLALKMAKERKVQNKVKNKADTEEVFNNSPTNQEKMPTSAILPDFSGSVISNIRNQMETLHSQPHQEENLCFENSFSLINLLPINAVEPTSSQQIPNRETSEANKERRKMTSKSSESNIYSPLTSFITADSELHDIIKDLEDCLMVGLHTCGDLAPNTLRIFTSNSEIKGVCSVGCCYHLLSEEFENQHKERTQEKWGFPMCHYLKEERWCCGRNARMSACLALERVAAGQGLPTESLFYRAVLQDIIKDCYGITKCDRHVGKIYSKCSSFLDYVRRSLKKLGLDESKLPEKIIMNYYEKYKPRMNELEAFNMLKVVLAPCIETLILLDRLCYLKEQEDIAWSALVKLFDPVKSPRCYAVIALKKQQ
UniProt Q7Z7M0: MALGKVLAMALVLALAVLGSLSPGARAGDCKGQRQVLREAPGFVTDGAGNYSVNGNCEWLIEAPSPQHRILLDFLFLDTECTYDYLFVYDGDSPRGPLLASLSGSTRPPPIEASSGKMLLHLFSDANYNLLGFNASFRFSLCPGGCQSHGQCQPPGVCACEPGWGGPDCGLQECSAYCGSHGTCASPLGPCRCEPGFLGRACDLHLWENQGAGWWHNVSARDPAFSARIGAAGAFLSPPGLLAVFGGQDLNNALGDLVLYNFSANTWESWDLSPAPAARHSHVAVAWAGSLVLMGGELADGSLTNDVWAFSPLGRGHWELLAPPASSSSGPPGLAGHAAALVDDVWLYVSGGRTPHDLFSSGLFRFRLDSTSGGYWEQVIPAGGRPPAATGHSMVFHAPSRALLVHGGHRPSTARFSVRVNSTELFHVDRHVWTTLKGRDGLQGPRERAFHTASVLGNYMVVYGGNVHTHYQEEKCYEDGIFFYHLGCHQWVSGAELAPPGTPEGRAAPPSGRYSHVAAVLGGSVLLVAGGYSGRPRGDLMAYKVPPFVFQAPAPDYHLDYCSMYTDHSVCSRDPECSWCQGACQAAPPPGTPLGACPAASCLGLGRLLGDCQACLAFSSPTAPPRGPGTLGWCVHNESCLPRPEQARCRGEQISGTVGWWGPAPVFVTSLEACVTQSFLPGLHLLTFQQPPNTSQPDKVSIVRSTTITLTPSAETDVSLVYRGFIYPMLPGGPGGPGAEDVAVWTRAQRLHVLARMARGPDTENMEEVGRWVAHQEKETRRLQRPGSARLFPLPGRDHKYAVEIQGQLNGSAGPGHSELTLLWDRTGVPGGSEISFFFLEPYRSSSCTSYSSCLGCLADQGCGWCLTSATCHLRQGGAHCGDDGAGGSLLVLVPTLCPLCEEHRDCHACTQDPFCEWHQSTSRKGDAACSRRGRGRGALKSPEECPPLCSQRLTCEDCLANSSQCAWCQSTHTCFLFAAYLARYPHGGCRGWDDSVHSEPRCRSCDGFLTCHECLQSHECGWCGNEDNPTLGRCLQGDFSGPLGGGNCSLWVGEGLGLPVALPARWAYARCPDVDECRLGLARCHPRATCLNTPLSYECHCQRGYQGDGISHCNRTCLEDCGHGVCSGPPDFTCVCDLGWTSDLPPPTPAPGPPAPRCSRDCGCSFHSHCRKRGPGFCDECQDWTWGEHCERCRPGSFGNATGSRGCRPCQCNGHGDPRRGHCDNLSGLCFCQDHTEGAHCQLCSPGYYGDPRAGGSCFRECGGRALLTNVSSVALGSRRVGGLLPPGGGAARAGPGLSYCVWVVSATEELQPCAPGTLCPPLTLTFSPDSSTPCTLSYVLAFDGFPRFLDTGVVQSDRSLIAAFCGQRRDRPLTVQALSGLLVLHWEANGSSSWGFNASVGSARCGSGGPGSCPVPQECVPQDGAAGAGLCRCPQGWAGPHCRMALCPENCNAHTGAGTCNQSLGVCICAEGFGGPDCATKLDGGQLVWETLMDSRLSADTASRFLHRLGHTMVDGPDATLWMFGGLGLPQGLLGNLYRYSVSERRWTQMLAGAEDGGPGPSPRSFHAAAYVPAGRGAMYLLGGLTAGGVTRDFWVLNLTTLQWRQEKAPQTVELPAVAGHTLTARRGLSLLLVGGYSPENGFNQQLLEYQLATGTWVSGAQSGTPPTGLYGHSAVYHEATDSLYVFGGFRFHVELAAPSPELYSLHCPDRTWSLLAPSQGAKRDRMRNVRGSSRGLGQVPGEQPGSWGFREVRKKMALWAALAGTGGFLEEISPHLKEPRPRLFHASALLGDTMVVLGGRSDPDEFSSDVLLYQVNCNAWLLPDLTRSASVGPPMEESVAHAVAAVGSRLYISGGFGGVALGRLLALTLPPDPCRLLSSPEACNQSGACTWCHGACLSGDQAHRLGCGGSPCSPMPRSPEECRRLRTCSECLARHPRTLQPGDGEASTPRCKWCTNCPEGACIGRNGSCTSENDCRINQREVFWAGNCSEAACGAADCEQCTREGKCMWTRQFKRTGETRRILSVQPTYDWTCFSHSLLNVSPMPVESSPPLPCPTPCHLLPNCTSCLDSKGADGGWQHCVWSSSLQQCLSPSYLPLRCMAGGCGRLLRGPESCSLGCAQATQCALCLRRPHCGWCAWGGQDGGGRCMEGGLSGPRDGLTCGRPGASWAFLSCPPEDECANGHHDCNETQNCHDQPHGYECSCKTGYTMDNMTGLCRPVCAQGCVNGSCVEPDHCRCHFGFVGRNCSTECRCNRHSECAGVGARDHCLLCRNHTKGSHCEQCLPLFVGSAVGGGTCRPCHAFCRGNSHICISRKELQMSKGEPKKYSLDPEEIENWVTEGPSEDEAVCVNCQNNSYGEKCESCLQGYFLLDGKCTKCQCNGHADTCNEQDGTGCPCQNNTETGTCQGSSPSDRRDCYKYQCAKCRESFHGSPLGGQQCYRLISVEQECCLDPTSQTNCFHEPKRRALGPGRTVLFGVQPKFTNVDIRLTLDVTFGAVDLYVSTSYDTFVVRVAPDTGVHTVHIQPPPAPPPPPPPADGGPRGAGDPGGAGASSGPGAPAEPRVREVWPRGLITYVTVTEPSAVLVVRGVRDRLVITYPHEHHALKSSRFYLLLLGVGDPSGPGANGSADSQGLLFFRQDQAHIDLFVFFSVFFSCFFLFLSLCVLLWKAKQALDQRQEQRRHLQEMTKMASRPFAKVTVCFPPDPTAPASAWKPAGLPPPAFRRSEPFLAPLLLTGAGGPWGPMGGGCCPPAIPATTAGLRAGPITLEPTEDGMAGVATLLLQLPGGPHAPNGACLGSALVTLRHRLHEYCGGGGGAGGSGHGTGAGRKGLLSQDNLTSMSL
UniProt O43934: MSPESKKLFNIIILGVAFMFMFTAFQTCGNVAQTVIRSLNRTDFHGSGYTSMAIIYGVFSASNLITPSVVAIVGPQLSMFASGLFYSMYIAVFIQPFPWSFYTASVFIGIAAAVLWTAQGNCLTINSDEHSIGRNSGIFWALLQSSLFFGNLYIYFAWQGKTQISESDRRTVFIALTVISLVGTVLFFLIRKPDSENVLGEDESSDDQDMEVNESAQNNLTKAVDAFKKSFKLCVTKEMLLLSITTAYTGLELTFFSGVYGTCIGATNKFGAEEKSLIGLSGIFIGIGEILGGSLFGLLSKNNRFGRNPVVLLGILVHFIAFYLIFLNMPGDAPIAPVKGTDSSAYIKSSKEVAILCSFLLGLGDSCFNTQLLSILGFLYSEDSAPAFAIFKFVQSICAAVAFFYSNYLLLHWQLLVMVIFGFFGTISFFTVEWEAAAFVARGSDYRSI
UniProt Q9H8H3: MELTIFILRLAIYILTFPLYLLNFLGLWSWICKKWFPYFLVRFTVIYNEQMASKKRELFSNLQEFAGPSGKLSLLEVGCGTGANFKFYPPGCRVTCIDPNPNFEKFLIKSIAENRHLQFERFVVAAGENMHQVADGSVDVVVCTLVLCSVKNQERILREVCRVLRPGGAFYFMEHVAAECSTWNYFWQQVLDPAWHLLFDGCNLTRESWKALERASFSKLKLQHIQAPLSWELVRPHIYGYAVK
UniProt Q14696: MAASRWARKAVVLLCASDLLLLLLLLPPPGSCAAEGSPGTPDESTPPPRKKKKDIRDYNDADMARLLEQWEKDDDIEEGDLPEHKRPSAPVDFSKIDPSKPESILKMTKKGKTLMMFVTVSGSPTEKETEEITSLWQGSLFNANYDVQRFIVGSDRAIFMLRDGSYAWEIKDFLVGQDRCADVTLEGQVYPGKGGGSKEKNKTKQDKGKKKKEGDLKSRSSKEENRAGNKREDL

Assays:
Assay in all cases: log2 fold change, soluble protein after heating vs DMSO (PISA); higher = thermal stabilisation; K562 lysate, 10 uM; active = over 0.2 and 3.5 SD of the protein, either way, in both replicates (recomputed)
ibrutinib = compound: C=CC(=O)N1CCC[C@@H](n2nc(-c3ccc(Oc4ccccc4)cc3)c3c(N)ncnc32)C1 [ibrutinib]
Outline: (§1)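 Thermal stability, expressed as log-two fold change relative to solvent controls, is given from duplicates. Crude K562 extract in PBS pH 7.4 with 1 mM MgCl2, at 1 mg/mL protein, was treated with 10 μM compound for 30 min and heated in aliquots for 3 min across 48°C-58°C. After pooling, adjustment to 0.5% NP-40 at 4°C and centrifugation at 21,000xg for 90 min, supernatant protein was measured by TMTpro 16plex LC-MS/MS with channel sums equalised.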

[1] = compound: CC(=O)c1cnc2ccc(-c3cc(Cl)c(O)c(Cl)c3)nc2c1N[C@H]1CC[C@H](CN(C)C)CC1
Outline: as §1

ralimetinib = compound: CC(C)(C)Cn1c(N)nc2ccc(-c3[nH]c(C(C)(C)C)nc3-c3ccc(F)cc3)nc21 [ralimetinib]
Outline: as §1

[2] = compound: CC(C)(O)CC(=O)NCCn1ccc2ncnc(Nc3ccc(Oc4cccc(C(F)(F)F)c4)c(Cl)c3)c21
Outline: as §1

[3] = compound: CC(C)C1=C2N=C(C=C(N2N=C1)NCC3=CC=CC=C3)NCCCCCCN
Outline: as §1

[4] = compound: CC1=C(C(CC(=O)N1)C2=CC=C(C=C2)C(F)(F)F)C(=O)NC3=C(C=C4C(=C3)C=NN4)F
Outline: as §1

[5] = compound: CC1=C(C2=C(C=C1)C(=O)C3=CC=CC=C3N2CCCN)C
Outline: as §1

[6] = compound: CC1=C(C=C(C=C1)NC(=O)C2=CC(=CC=C2)C(C)(C)C#N)NC3=CC4=C(C=C3)N=CN(C4=O)C
Outline: as §1

[7] = compound: CC1=C(C=C(C=C1)NC(=O)C2=CC(=CC=C2)N(C)C)NC(=O)C3=CC=C(C=C3)O
Outline: as §1

[8] = compound: CC1=CC=C(C=C1)SC2=C3C=C(SC3=CN=C2)C(=O)N
Outline: as §1

| Target | log2 fold change (ibrutinib) | log2 fold change [1] | log2 fold change (ralimetinib) | log2 fold change [2] | log2 fold change [3] | log2 fold change [4] | log2 fold change [5] | log2 fold change [6] | log2 fold change [7] | log2 fold change [8] |
| --- | --- | --- | --- | --- | --- | --- | --- | --- | --- | --- |
| MFGE8 (UniProt Q08431) | inactive: -0.003 | inactive: -0.068 | inactive: 0.021 | inactive: 0.025 | inactive: 0.001 | inactive: 0.028 | inactive: -0.044 | inactive: 0.03 | inactive: -0.014 | inactive: -0.078 |
| MDH1 isoform 3 (UniProt P40925) | inactive: 0.003 | inactive: -0.016 | inactive: -0.014 | inactive: 0.02 | inactive: 0.002 | inactive: -0.028 | inactive: -0.01 | inactive: -0.015 | inactive: -0.038 | inactive: -0.002 |
| MBIP (UniProt Q9NS73) | inactive: -0.121 | inactive: 0.149 | inactive: 0.042 | inactive: -0.07 | inactive: -0.057 | inactive: 0.076 | inactive: -0.039 | inactive: -0.131 | inactive: 0.039 | inactive: -0.01 |
| MCM3AP (UniProt O60318) | inactive: 0.137 | inactive: -0.029 | inactive: 0.016 | inactive: -0.01 | inactive: 0.004 | inactive: -0.058 | inactive: -0.144 |  | inactive: -0.103 | inactive: 0.069 |
| MED26 (UniProt O95402) | inactive: -0.007 | inactive: -0.024 | inactive: -0.009 | inactive: -0.066 | inactive: -0.153 | inactive: 0.086 |  | inactive: 0.031 | inactive: 0.014 | inactive: 0.016 |
| MED10 (UniProt Q9BTT4) | inactive: -0.029 | inactive: -0.087 | inactive: -0.015 | inactive: -0.055 | inactive: -0.019 | inactive: -0.013 | inactive: -0.025 | inactive: 0.02 | inactive: 0.074 | inactive: 0.074 |
| MERTK (UniProt Q12866) | inactive: 0.092 | inactive: 0.034 | inactive: -0.069 | inactive: -0.056 | inactive: 0.042 | inactive: 0 | inactive: 0 | inactive: -0.082 | inactive: 0.093 | inactive: 0.025 |
| MED19 (UniProt A0JLT2) | inactive: 0.225 | inactive: 0.006 | inactive: 0.043 | inactive: 0.018 |  |  | inactive: 0.047 | inactive: 0.011 | inactive: -0.062 | inactive: -0.073 |
| MATR3 (UniProt P43243) | inactive: -0.001 | inactive: -0.028 | inactive: -0.014 | inactive: -0.098 | inactive: 0.048 | inactive: 0.026 | inactive: -0.043 | inactive: 0.126 | inactive: 0.024 | inactive: -0.007 |
| MBNL1 isoform 5 (UniProt Q9NR56) | inactive: 0.045 | inactive: 0.061 | inactive: -0.027 | inactive: -0.032 | inactive: -0.013 | inactive: -0.001 | inactive: 0.034 | inactive: -0.122 | inactive: 0.003 | inactive: -0.002 |
| MAU2 (UniProt Q9Y6X3) | inactive: 0.082 | inactive: -0.06 | inactive: 0.039 | inactive: -0.047 | inactive: -0.051 |  |  | inactive: 0.069 | inactive: 0.006 | inactive: 0.162 |
| MCM6 (UniProt Q14566) | inactive: 0.004 | inactive: -0.004 | inactive: 0.021 | inactive: -0.003 | inactive: -0.022 | inactive: -0.013 | inactive: -0.002 | inactive: -0.067 | inactive: 0.014 | inactive: 0.005 |
| MFHAS1 (UniProt Q9Y4C4) | inactive: 0.526 | inactive: 0.26 | inactive: 0.009 | inactive: -0.233 | inactive: 0.019 |  | inactive: -0.118 | inactive: 0.115 | inactive: -0.026 | inactive: 0.258 |
| METTL18 (UniProt O95568) | inactive: -0.031 | inactive: -0.002 | inactive: -0.001 | inactive: 0.027 | inactive: -0.009 | inactive: 0.044 | inactive: 0.016 | inactive: 0.042 | inactive: 0.001 | inactive: -0.016 |
| MED18 (UniProt Q9BUE0) | inactive: -0.004 | inactive: 0.006 | inactive: 0.037 | inactive: -0.024 | inactive: -0.022 | inactive: 0.048 | inactive: -0.008 | inactive: -0.023 | inactive: 0.012 | inactive: -0.014 |
| METTL2B (UniProt Q6P1Q9) | inactive: 0.056 | inactive: -0.076 |  |  |  |  | inactive: 0.175 | inactive: -0.114 |  | inactive: 0.075 |

Part of the list above, showing only log2 fold change [7]:

| Target | log2 fold change [7] |
| --- | --- |
| MED19 (UniProt A0JLT2) | inactive: -0.062 |
| METTL18 (UniProt O95568) | inactive: 0.001 |

Going on with the list:

| Target | log2 fold change (ibrutinib) | log2 fold change [1] | log2 fold change (ralimetinib) | log2 fold change [2] | log2 fold change [3] | log2 fold change [4] | log2 fold change [5] | log2 fold change [6] | log2 fold change [7] | log2 fold change [8] |
| --- | --- | --- | --- | --- | --- | --- | --- | --- | --- | --- |
| MCM3 isoform 2 (UniProt P25205) | inactive: 0.012 | inactive: -0.026 | inactive: -0.005 | inactive: 0.009 | inactive: -0.007 | inactive: 0.007 | inactive: 0 | inactive: -0.006 | inactive: -0.005 | inactive: 0.006 |
| METTL6 (UniProt Q8TCB7) | inactive: -0.078 | inactive: 0.066 | inactive: 0.211 | inactive: -0.135 |  |  | inactive: -0.034 | inactive: 0.015 | inactive: 0.118 | inactive: 0.009 |
| METTL25 (UniProt Q8N6Q8) | inactive: 0.027 | inactive: -0.073 | inactive: -0.058 | inactive: -0.106 |  |  | inactive: -0.072 |  | inactive: 0.046 | inactive: 0.065 |
| MEGF8 (UniProt Q7Z7M0) | inactive: 0 |  | inactive: -0.019 | inactive: -0.124 | inactive: -0.057 |  | inactive: 0.091 | inactive: 0.079 | inactive: 0.154 |  |
| MED6 (UniProt O75586) | inactive: 0.043 | inactive: 0.064 | inactive: -0.167 | inactive: 0.02 |  |  | inactive: -0.02 | inactive: 0.081 | inactive: -0.024 | inactive: -0.153 |
| METTL26 (UniProt Q96S19) | inactive: 0.058 | inactive: 0 | inactive: -0.017 | inactive: -0.005 | inactive: -0.046 |  | inactive: -0.069 | inactive: -0.036 | inactive: 0.011 | inactive: 0.023 |
| MCUB (UniProt Q9NWR8) | inactive: 0.127 | inactive: 0.013 | inactive: 0.054 | inactive: 0.045 | inactive: -0.063 | inactive: 0.039 | inactive: -0.219 | active: 0.443 | inactive: 0.04 | inactive: 0.204 |
| ME1 (UniProt P48163) | inactive: 0.01 | inactive: -0.013 | inactive: 0.025 | inactive: 0.007 | inactive: -0.017 | inactive: -0.009 | inactive: 0.009 | inactive: -0.039 | inactive: -0.014 | inactive: -0.001 |
| METTL9 (UniProt Q9H1A3) | inactive: 0.058 | inactive: 0.008 | inactive: -0.013 | inactive: 0.013 | inactive: -0.027 | inactive: -0.062 | inactive: -0.079 | inactive: 0.088 | inactive: 0.037 | inactive: 0.07 |
| METTL14 (UniProt Q9HCE5) | inactive: -0.003 | inactive: -0.031 | inactive: -0.026 | inactive: -0.029 | inactive: -0.058 | inactive: 0.039 | inactive: 0.004 | inactive: -0.034 | inactive: 0.01 | inactive: 0.019 |
| MFSD11 (UniProt O43934) | inactive: -0.029 | inactive: -0.016 | inactive: 0.044 | inactive: -0.087 | inactive: -0.078 |  |  |  | inactive: -0.051 | inactive: -0.033 |
| METTL7A (UniProt Q9H8H3) | inactive: 0.113 | inactive: -0.055 | inactive: 0.036 | inactive: -0.025 | inactive: 0.017 | inactive: 0.016 | inactive: -0.055 | inactive: 0.068 | inactive: -0.033 | inactive: -0.035 |
| MBOAT1 (UniProt Q6ZNC8) | inactive: 0.098 | inactive: -0.059 | inactive: 0.167 | inactive: -0.111 | inactive: -0.243 | inactive: -0.078 |  | inactive: 0.032 | inactive: 0.179 | inactive: 0.231 |
| MEX3B (UniProt Q6ZN04) | inactive: -0.011 | inactive: -0.074 | inactive: -0.101 | inactive: 0.063 | inactive: 0.183 | inactive: -0.048 | inactive: 0.035 |  | inactive: -0.038 | inactive: -0.013 |
| MESD (UniProt Q14696) | inactive: 0.014 | inactive: -0.001 | inactive: 0.035 | inactive: 0.03 | inactive: -0.023 | inactive: -0.01 | inactive: 0.024 | inactive: -0.063 | inactive: 0.013 | inactive: -0.005 |
